Results taken from doi:10.1101/2020.11.11.20227777.
These are yes or no findings as the source states them, for the method shown. Binding seen in cells or lysates may run through a third protein. Some results given as binding are weak or reduced against the parent protein; the word gives no strength.

Amino acid sequences for entries named in this document (tags omitted). Residues count along the entry.
UniProt Q9NY15, residues 26-2570: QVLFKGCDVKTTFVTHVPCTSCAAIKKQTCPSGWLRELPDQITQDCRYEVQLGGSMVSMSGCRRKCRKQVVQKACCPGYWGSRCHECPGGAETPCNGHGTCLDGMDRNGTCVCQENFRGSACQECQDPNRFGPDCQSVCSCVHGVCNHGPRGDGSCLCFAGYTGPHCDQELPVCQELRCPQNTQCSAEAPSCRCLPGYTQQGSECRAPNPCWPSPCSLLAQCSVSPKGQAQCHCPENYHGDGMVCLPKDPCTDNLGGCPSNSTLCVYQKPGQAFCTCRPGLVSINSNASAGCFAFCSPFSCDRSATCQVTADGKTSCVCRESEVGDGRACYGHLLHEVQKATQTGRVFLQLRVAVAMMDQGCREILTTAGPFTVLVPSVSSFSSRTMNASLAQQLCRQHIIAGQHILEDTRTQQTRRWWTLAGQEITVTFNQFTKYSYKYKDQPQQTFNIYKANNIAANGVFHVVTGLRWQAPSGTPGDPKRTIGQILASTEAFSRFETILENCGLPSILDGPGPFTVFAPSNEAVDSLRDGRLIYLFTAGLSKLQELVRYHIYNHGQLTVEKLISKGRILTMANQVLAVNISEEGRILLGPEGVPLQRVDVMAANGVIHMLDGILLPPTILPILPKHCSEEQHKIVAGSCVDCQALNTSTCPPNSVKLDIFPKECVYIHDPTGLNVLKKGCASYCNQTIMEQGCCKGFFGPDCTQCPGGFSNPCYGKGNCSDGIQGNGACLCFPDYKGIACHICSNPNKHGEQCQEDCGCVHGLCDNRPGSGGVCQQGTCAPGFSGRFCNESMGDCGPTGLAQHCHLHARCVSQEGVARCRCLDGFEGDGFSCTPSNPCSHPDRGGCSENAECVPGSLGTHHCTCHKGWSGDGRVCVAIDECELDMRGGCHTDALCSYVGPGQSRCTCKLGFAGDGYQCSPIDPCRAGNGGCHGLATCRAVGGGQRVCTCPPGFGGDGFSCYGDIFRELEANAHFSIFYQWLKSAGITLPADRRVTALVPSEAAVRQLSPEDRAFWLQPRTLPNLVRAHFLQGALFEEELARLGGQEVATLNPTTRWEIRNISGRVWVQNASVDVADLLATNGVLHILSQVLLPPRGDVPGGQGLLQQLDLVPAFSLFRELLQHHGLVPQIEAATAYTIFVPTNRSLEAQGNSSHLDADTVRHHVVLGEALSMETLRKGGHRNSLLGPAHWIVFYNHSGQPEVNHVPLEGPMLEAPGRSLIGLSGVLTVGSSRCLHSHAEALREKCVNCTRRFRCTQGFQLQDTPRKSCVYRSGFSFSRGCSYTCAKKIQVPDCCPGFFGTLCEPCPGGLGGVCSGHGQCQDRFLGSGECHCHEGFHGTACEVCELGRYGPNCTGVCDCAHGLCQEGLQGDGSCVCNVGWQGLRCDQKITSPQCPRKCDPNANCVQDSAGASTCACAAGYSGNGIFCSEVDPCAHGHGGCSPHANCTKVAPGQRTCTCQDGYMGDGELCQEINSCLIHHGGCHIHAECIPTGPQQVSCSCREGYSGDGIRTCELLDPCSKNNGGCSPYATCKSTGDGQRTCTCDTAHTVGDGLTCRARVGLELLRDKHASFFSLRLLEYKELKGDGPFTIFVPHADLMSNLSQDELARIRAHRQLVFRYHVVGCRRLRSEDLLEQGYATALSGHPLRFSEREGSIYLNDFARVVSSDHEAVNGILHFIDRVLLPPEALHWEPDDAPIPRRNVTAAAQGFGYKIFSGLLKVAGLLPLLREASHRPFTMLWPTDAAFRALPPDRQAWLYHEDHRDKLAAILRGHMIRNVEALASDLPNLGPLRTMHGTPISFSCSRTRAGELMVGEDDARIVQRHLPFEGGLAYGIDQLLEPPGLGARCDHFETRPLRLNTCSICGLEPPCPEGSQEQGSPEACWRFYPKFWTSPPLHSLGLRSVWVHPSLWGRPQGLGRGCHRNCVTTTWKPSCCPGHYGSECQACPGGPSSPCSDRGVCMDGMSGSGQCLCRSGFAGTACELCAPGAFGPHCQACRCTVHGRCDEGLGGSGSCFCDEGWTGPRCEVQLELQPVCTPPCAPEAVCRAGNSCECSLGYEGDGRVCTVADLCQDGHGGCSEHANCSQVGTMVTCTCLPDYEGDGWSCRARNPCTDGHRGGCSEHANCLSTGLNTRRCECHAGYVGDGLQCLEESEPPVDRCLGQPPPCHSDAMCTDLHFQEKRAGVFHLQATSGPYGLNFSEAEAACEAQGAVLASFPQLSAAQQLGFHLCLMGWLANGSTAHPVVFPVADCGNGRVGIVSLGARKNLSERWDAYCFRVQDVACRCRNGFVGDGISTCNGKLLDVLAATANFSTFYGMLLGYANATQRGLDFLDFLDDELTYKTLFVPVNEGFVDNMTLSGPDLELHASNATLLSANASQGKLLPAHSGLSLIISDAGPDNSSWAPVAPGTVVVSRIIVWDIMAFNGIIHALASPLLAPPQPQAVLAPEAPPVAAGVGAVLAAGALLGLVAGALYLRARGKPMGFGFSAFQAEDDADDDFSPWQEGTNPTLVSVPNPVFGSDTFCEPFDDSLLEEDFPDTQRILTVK
UniProt Q93050: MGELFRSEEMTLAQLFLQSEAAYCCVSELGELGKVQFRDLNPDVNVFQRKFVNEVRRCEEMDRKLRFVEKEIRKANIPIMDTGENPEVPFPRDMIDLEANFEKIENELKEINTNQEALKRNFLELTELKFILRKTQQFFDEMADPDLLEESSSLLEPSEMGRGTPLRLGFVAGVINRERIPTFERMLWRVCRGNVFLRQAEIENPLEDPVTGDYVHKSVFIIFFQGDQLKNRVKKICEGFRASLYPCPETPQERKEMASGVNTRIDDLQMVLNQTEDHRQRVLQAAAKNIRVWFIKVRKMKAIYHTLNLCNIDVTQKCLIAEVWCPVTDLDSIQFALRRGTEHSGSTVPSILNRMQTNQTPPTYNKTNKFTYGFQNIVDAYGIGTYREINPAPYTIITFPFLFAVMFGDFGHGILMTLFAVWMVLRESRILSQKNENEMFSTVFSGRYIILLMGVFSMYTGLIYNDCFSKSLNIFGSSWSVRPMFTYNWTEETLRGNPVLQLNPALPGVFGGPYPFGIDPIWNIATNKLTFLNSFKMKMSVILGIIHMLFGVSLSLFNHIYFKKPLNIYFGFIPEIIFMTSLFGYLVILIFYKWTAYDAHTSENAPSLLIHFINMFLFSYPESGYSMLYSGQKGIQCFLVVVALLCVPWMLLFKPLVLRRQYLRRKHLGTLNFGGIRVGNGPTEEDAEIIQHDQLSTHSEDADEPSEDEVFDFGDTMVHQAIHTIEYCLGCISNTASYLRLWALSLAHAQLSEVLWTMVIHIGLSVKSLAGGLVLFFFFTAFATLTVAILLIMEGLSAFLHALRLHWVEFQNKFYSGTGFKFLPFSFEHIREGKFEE
UniProt Q13488: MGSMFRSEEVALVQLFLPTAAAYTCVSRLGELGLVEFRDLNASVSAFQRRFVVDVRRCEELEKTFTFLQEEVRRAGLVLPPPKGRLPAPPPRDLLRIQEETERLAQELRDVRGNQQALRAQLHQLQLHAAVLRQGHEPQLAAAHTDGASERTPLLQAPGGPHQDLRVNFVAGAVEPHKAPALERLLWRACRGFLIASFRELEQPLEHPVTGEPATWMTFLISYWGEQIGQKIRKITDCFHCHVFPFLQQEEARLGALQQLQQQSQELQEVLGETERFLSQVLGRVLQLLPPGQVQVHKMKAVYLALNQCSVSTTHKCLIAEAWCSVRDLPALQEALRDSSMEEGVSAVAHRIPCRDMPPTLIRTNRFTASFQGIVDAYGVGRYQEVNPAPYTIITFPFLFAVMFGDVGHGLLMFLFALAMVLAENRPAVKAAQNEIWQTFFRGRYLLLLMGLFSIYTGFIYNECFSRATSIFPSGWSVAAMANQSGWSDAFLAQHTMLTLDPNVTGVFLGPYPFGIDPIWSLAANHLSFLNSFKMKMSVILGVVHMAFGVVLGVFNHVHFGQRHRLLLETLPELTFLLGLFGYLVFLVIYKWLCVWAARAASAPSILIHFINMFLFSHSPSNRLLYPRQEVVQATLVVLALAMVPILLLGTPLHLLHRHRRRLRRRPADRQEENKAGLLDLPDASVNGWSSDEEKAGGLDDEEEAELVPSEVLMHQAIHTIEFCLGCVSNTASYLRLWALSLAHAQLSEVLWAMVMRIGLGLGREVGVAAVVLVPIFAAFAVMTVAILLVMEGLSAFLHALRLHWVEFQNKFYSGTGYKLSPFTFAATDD

Target: Clever-1 (human (endogenous in primary macrophages)) (UniProt Q9NY15)
Assay: co-IP

Substance | binding
ATP6V0A1 (from UniProt Q93050 1-837) | binds
TCIRG1 (from UniProt Q13488 1-830) | binds
